In the supplement of paper PMC6078165:
Values are relative to the signal before dosing, not to a vehicle control; the signal also falls without drug.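 Fibroblast labels denote human fibroblasts, mainly primary ones from uterus (C12385, HUF), lung (H6013), bone (Hs27A), adrenal (HADF) and skin (WS1), plus mammary HMF and breast cancer-associated Hs343T. Cancer cells are basal-like or mesenchymal-like triple-negative breast cancer lines. A hit is a response shift exceeding 3x replicate standard deviation. The tissue of the other fibroblasts is not given here.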

Tested on: MDAMB231
Experiment: relative JC-1 red fluorescence (viability) vs pre-drug, coculture with fibroblast (fraction); higher = more viable cancer cells
Description: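 JC-1 labelled TNBC cells cocultured 1:1 (1,500 cells each) with CellTrace Violet stained primary or stromal fibroblasts in 384-well plates in FluoroBrite medium, treated with one of 42 anticancer drugs at 0.1, 1, 10 or 100 uM. JC-1 red fluorescence (mitochondrial integrity in cancer cells only) was read by plate reader every 8 h for 72 h. Values are normalised to each well's pre-drug value. The stock of one drug was tenfold lower, so its dose labels may be too high.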

CO[C@H]1C[C@@H]2CC[C@@H](C)[C@@](O)(O2)C(=O)C(=O)N2CCCC[C@H]2C(=O)O[C@H]([C@H](C)C[C@@H]2CC[C@@H](O)[C@H](OC)C2)CC(=O)[C@H](C)/C=C(\C)[C@@H](O)[C@@H](OC)C(=O)[C@H](C)C[C@H](C)/C=C/C=C/C=C/1C [Rapamycin]
relative JC-1 red fluorescence
Conditions	8 h	16 h	24 h	32 h	40 h	48 h	56 h	64 h	72 h
0.1 µM, coculture fibroblast: C12385	0.7926	0.742	0.674	0.664	0.619	0.594	0.557	0.559	0.543
0.1 µM, coculture fibroblast: H6013	0.8925	0.8386	0.7989	0.789	0.763	0.731	0.729	0.719	0.679
0.1 µM, coculture fibroblast: H6019	0.756	0.706	0.649	0.643	0.594	0.574	0.536	0.54	0.516
0.1 µM, coculture fibroblast: H6076	0.897	0.823	0.773	0.747	0.719	0.692	0.674	0.661	0.654
0.1 µM, coculture fibroblast: H6231	0.93505	0.842	0.775	0.724	0.686	0.654	0.616	0.601	0.575
0.1 µM, coculture fibroblast: HADF	0.87	0.838	0.801	0.765	0.731	0.681	0.676	0.665	0.627
0.1 µM, coculture fibroblast: HCFa	0.8816	0.833	0.78	0.747	0.7	0.651	0.64	0.617	0.585
0.1 µM, coculture fibroblast: HCPF	0.9105	0.8082	0.762	0.729	0.687	0.646	0.6124	0.587	0.572
0.1 µM, coculture fibroblast: HHSteC	0.904	0.861	0.817	0.771	0.739	0.7078	0.684	0.661	0.629
0.1 µM, coculture fibroblast: HMF	0.9112	0.831	0.757	0.708	0.665	0.625	0.597	0.575	0.561
0.1 µM, coculture fibroblast: HPFa	0.9588	0.901	0.8333	0.793	0.771	0.7246	0.6853	0.674	0.643
0.1 µM, coculture fibroblast: HUF	0.853	0.73	0.778	0.651	0.599	0.581	0.535	0.543	0.52
0.1 µM, coculture fibroblast: Hs5	0.886	0.832	0.792	0.755	0.716	0.674	0.642	0.622	0.603
0.1 µM, coculture fibroblast: Hs27A	0.875	0.821	0.778	0.76	0.717	0.639	0.667	0.656	0.621
0.1 µM, coculture fibroblast: Hs343T	0.861	0.776	0.735	0.688	0.643	0.6	0.5644	0.551	0.536
0.1 µM, coculture fibroblast: WS1	0.75	0.693	0.641	0.605	0.562	0.55	0.519	0.519	0.499
1 µM, coculture fibroblast: C12385	0.76	0.7731	0.7	0.727	0.689	0.67	0.642	0.64	0.637
1 µM, coculture fibroblast: H6013	0.906	0.887	0.858	0.856	0.828	0.786	0.796	0.778	0.747
1 µM, coculture fibroblast: H6019	0.7662	0.748	0.745	0.733	0.697	0.7	0.665	0.671	0.655
1 µM, coculture fibroblast: H6076	0.881	0.852	0.8235	0.813	0.7914	0.7587	0.7407	0.7368	0.7438
1 µM, coculture fibroblast: H6231	0.938	0.888	0.843	0.801	0.764	0.735	0.701	0.689	0.666
1 µM, coculture fibroblast: HADF	0.9097	0.89	0.8588	0.8391	0.83	0.781	0.7933	0.791	0.746
1 µM, coculture fibroblast: HCFa	0.901	0.8856	0.864	0.854	0.824	0.777	0.758	0.74	0.706
1 µM, coculture fibroblast: HCPF	0.907	0.888	0.877	0.815	0.726	0.769	0.74	0.66	0.667
1 µM, coculture fibroblast: HHSteC	0.9189	0.8981	0.8556	0.8277	0.795	0.7682	0.7432	0.727	0.704
1 µM, coculture fibroblast: HMF	0.884	0.84687	0.814	0.7872	0.7618	0.742	0.7139	0.701	0.7033
1 µM, coculture fibroblast: HPFa	0.9342	0.931	0.889	0.852	0.844	0.805	0.769	0.758	0.727
1 µM, coculture fibroblast: HUF	0.8357	0.7786	0.776	0.715	0.667	0.6609	0.6246	0.622	0.603
1 µM, coculture fibroblast: Hs5	0.954	0.926	0.88	0.846	0.806	0.763	0.731	0.708	0.699
1 µM, coculture fibroblast: Hs27A	0.901	0.8851	0.8412	0.837	0.797	0.717	0.75	0.745	0.704
1 µM, coculture fibroblast: Hs343T	0.938	0.881	0.822	0.784	0.732	0.698	0.665	0.658	0.645
1 µM, coculture fibroblast: WS1	0.753	0.746	0.679	0.696	0.667	0.649	0.617	0.618	0.604
